From article PMC5767604
These are yes or no findings as the source states them, for the method shown. Binding seen in cells or lysates may run through a third protein. A yes stands for co-enrichment or nearness to the bait. Other partners may have been found. Sequences can lack the tags named with a protein.

Sequences of proteins named here, by UniProt entry; tags and fusion partners are left off. A change or cut given only in a name is not applied to a line headed by its entry. Residues count along the entry.
UniProt Q9SA16: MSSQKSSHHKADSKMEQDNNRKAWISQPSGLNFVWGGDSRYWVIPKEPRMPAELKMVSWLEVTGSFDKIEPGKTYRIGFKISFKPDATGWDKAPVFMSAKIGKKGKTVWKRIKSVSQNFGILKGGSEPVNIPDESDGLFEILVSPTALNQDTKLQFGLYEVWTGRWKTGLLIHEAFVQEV
UniProt P37702, residues 20-541: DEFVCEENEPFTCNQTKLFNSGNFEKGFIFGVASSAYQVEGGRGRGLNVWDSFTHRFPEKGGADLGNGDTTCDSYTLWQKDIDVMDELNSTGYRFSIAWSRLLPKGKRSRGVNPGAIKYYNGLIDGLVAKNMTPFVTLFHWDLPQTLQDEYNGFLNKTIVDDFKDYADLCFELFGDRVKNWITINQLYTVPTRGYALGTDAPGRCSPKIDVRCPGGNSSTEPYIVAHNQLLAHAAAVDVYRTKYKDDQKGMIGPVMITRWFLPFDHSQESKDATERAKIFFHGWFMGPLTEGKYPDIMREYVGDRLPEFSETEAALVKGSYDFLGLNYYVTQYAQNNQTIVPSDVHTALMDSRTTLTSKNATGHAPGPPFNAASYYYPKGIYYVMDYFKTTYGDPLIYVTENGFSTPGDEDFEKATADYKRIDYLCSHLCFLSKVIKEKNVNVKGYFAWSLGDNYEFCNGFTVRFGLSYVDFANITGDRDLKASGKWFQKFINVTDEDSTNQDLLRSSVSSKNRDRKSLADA

B1: GDSL esterase/lipase ESM1 (protein, UniProt Q9LJG3 29-392)
chain: GEGVPNVALFTFGDSYYDAGNKVFLSQRKDLPQTYWPYGKSRDYPNGKFSDGHIVPDFIADFISIPNGVLPPVLKPGVDISRGVSFAVADASILGAPVESMTLNQQVVKFKNMKSNWNDSYIEKSLFMIYIGTEDYLNFTKANPNADASAQQAFVTNVINRLKNDIKLLYSLGASKFVVQLLAPLGCLPIVRQEYKTGNECYELLNDLAKQHNGKIGPMLNEFAKISTSPYGFQFTVFDFYNAVLRRIATGRSLNYRFFVTNTSCCGVGTHNAYGCGKGNVHSKLCEYQRSYFFFDGRHNTEKAQEEMAHLLYGADPDVVQPMTVRELIVYPTGETMREYWEPNNLAIRRRPSRDFYLGLAAYY
B2: protein plastid transcriptionally active 16 (protein, UniProt Q9STF2 20-510)
chain: FNRRKPRLTVWAKQTAFQLGKTKGDDDSEGKQKGKNPFQFDFGKLPDMKSLIPVVTNPSTGLVFGNNRKKDPGTIFVAGATGQAGIRIAQTLLQRGFSVRAGVPDLGAAQDLARVAATYKILSNDEVKRLNAVQSPFQDAESIAKAIGNATKVVVTVGATENGPDAQVSTSDALLVVQAAELAGVSHVAIVYDGTISGSTYNVLDGITSFFGNLFAKSQPLTISDLIEKVAQTDVAYTLIKTSLTEDFSPEKAYNVVVSAEGSNSGSGSSSSEAYKVPKLKIASLVADIFANTAVAENKVVEVSTDPSAPSRPVDELFSVIPEDGRRKVYADAIARERAEEEAKVAADKAREAAEAAKEFEKQMQKLSEKEAEAASLAEDAQQKADAVGVTVDGLFNKAKDISSGLSWNKLGSQFATAIQNASETPKVQVATVRGQAKARNLPPKKAVVKQRPSSPFASKPKEERPKKPEKEVRKVFGGLFKQETIYIDDD
B3: BGLU23 (PYK10, beta-O-glucosidase) (enzyme, UniProt Q9SR37 25-524)
chain: DGPVCPPSNKLSRASFPEGFLFGTATAAYQVEGAINETCRGPALWDIYCRRYPERCNNDNGDVAVDFFHRYKEDIQLMKNLNTDAFRMSIAWPRIFPHGRKEKGVSQAGVQFYHDLIDELIKNGITPFVTVFHWDTPQDLEDEYGGFLSERIVKDFREYADFVFQEYGGKVKHWITFNEPWVFSHAGYDVGKKAPGRCSSYVNAKCQDGRSGYEAYLVTHNLLISHAEAVEAYRKCEKCKGGKIGIAHSPAWFEAHDLADSQDGASIDRALDFILGWHLDTTTFGDYPQIMKDIVGHRLPKFTTEQKAKLKASTDFVGLNYYTSVFSNHLEKPDPSKPRWMQDSLITWESKNAQNYAIGSKPLTAALNVYSRGFRSLLKYIKDKYANPEIMIMENGYGEELGASDSVAVGTADHNRKYYLQRHLLSMQEAVCIDKVNVTGYFVWSLLDNFEWQDGYKNRFGLYYVDFKNNLTRYEKESGKYYKDFLSQGVRPSALKKDEL

Target: C-terminally His6-tagged AN4 (ArathNictaba4) (A. thaliana) (UniProt Q9SA16)
Experiment: affinity purification with mass spectrometry; AN4-HIS from the soluble fraction of IPTG-induced E. coli held on Ni-agarose beads (bait), washed with PB, 1 M NaCl, 50 and 75 mM imidazole, pH 8.0; incubated 30-35 min at 4°C with extract of 16-day-old Arabidopsis plants, untreated or treated with 150 mM NaCl for 5 h (prey; extraction buffer 1 x PB, 1 M NaCl, 25 mM imidazole, 10% glycerol, 0.1% Tween-20, 1% beta-mercaptoethanol, pH 8.0); compared with beads loaded from a non-induced E. coli culture; on-bead trypsin, Q Exactive HF, MaxQuant and Perseus; only the target purified

Molecule	binding
TGG1 (myrosinase 1, thioglucoside glucohydrolase) (from UniProt P37702 20-541) (enzyme)	binds
B1	binds
B2	binds
B3	binds
